PubChem BioAssay AID1671195 – Yale University, 2021
In all, the deposit lists about 22,000 reagents; below is a part drawn at random. In the full data, about 1,510 (6.9%) were called active. 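Active includes knockdowns raising or lowering LDL uptake; positive z-scores mean more uptake, negative mean less.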

Screen: 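Genes whose knockdown alters LDL uptake in liver cancer cells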 (primary screen)
Cell system: human Huh7 hepatoma cells
Reagents: siRNA pool against human genes, 18 nM
Duration: about 2 to 2.5 days of knockdown, then 8 h LDL uptake
Conditions: DiI-labelled LDL at 30 µg/ml for 8 h, in lipoprotein-deficient serum medium
Detection: 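Fluorescent LDL signal imaged in cells, scaled to the plate median, robust z-score for each replicate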
Direction: robust z-score: higher = more LDL uptake after knockdown
Call rule: 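Active when two or more replicates show a robust z-score above 2 or below -2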

gene symbol | robust z-score, replicate 1 | robust z-score, replicate 2 | robust z-score, replicate 3 | Outcome
SLC16A6P1 | -1.15 | -1.08 | -0.849 | inactive
RPL23AP15 | -0.167 | 0.672 | 0.81 | inactive
IDUA | -0.0732 | -0.189 | 0.039 | inactive
LOC387720 (retired record) | -0.29 | -0.444 | -0.386 | inactive
CLEC7A | -0.903 | -0.981 | -0.89 | inactive
OVOS2P | -0.217 | 0.651 | 0.663 | inactive
EED | -1.42 | 0.838 | -0.206 | inactive
PICALM | 0.747 | -0.727 | 0.328 | inactive
LOC442434 (retired record) | -0.128 | -0.00579 | -0.109 | inactive
BABAM1 | 0.763 | -0.681 | 0.827 | inactive
LOC440750 (retired record) | 3.79 | 3.26 | 3.63 | active
IL2RB | -0.736 | -1.26 | -0.882 | inactive
LINC01559 | 0.0538 | 0.31 | 0.0314 | inactive
FAM216A | 1.14 | 2.59 | 0.643 | inactive
ZEB1 | 1.11 | 0.363 | 0.214 | inactive
ORC1 | 0.251 | -0.182 | 0.127 | inactive
PRPF3 | -0.152 | -0.661 | -0.658 | inactive
LEKR1 | 0.935 | 0.881 | 0.386 | inactive
GARIN5A | -0.16 | -0.241 | 0.0457 | inactive
PIGG | 0.0161 | -0.379 | -0.661 | inactive
ERC1 | 0.686 | 0.59 | 0.282 | inactive
ERCC6L2-AS1 | -0.681 | -0.79 | -0.937 | inactive
PTDSS1 | 0.274 | 1.51 | 1.25 | inactive
ZPBP2 | 1.38 | 1.73 | 2.73 | inactive
CLK2 | -1.41 | -0.577 | -1.38 | inactive
PCDH17 | -0.568 | -0.604 | -1.16 | inactive
WDR20 | -0.197 | -0.74 | -0.285 | inactive
LOC440386 (retired record) | -0.41 | 0.381 | -0.0752 | inactive
CYP26A1 | -0.167 | -0.629 | -0.442 | inactive
ATAT1 | 0.899 | 0.485 | 0.0903 | inactive
CALM3 | 1.33 | 0.323 | 0.17 | inactive
WDR44 | -1.05 | -1.98 | -1.7 | inactive
LOC441579 (retired record) | -1.04 | -1.51 | -1.45 | inactive
PLEKHH2 | -0.544 | -1.88 | -0.494 | inactive
LOC441761 (retired record) | 0.377 | 1.87 | 1.25 | inactive
ADAM11 | -1.62 | -1.57 | -1.68 | inactive
NR2C2AP | 0.761 | 1.64 | 1.2 | inactive
CPSF7 | -0.185 | -0.39 | -0.393 | inactive
MOB3B | 1.87 | 1.55 | -0.168 | inactive
LOC390985 (retired record) | -0.268 | -0.334 | -0.419 | inactive
HVCN1 | -0.748 | -0.922 | -1.28 | inactive
AP4E1 | -1.58 | -2.05 | -1.3 | inactive
RLIG1 | -0.805 | -0.444 | -0.331 | inactive
TECPR2 | 0.00392 | 0.214 | -1.24 | inactive
GLTP | -1.04 | -0.13 | 0.699 | inactive
KRTAP19-6 | 1.12 | 1.07 | 1.38 | inactive

Reagents above called active, once more:
gene symbol | robust z-score, replicate 1 | robust z-score, replicate 2 | robust z-score, replicate 3 | Outcome
LOC440750 (retired record) | 3.79 | 3.26 | 3.63 | active
